Experimental data as given in PubChem BioAssay AID540276 (National Center for Advancing Translational Sciences (NCATS), 2011).
Several values for one entry are separate records, joined by “and”; a condition that tells them apart may be missing. Equal values may be shown once. Among all 300,000 compounds or so, about 5,400 (1.8%) were called active. The inconclusive results got no clear call from the source; some entries with a clear call stand among them for comparison. Calls follow the shape of the full dose curve; tested in HEK293 cells. Potencies of inconclusive entries are doubtful fits and often do not repeat.

Test: qHTS for inhibitors of binding or entry into cells for Marburg Virus
Details: Marburg virus pseudotyped entry inhibition, cell reporter; activity change, negative = inhibition: at 37.8 µM (top of the series) unless noted
% is scaled to controls: 0 for no effect and ±100 for the full control effect; potency is read from the fitted curve at half-maximal effect.

SMILES | Potency | activity change, negative = inhibition
O=C(c1ccco1)N1CCCC(c2nc(-c3ccc(S(=O)(=O)NCc4ccccc4)cc3)no2)C1 (stereo not drawn) | inconclusive: 11.6 µM [inhibitor, partial curve, poor fit] | 
CC(C)(C)NC(=O)C(c1ccncc1)N(C(=O)Cn1nnc(-c2ccc(F)cc2)n1)c1ccc(F)cc1 (stereo not drawn) | inconclusive: 10 µM [inhibitor, partial curve, poor fit] | 
O=C(NCc1ccccc1)c1ccc(Cn2cc(C(F)(F)F)ccc2=O)cc1 | inconclusive: 20.6 µM [activator, partial curve, poor fit] | 
COc1ccc(N2C(=O)CC(N(CCc3ccc(OC)c(OC)c3)C(=S)Nc3ccccc3)C2=O)cc1 (stereo not drawn) |  | inactive: 9.68%
O=S(=O)(Nc1ccccc1-c1ccccc1)c1ccccc1 | inconclusive: 10 µM [inhibitor, partial curve, poor fit] | 
Cc1occc1-c1nnc(SCC(N)=O)o1 |  | inactive: -2.88% [at 46.1 µM]
CCCNC(=O)OC[C@H]1O[C@H](CCO/N=C/[C@@H](NS(=O)(=O)c2ccc(C)cc2)[C@H](C)/C=C/CC(=O)OC)C=C[C@@H]1Oc1ccc(OC)cc1 | inconclusive: 16.4 µM [inhibitor, partial curve, poor fit] | 
O=C(Cc1ccc(Br)c2ccccc12)N/N=C/c1ccccn1 | inconclusive: 11.2 µM [inhibitor, partial curve, poor fit] | 
CCCCNC(=O)c1sc2ncnc(N3CCc4ccccc4C3)c2c1C | inconclusive: 25.9 µM [inhibitor, partial curve] | 
CCOc1ccc(NC(=O)c2cc(F)c(F)cc2Cl)cc1OCC | inconclusive: 35.5 µM [inhibitor, single point] | 
CCOC(=O)C1CCCN(CC(=O)Nc2c(F)c(F)c(F)c(F)c2F)C1 (stereo not drawn) |  | inactive: 3.9%
NSc1nc(N)c2nc(-c3ccccc3)c(-c3ccccc3)nc2n1 |  | inactive: -16.1% [at 46.1 µM]
CCOC(=O)CC(=O)CSc1nc2c(C)c(C)ccc2cc1C | inconclusive: 25.9 µM [inhibitor, single point] | 
CC(Oc1ccccc1)C(=O)NNC(=O)c1ccccn1 (stereo not drawn) | inconclusive: 8.91 µM [inhibitor, partial curve, poor fit] | 
CC(C)c1ccc(CNC(=O)CSCC(=O)Nc2ccc3ccccc3c2)cc1 | inconclusive: 23.1 µM [inhibitor, single point] | 
Cc1cccc(NC(=O)Cc2noc3ccccc23)c1 | inconclusive: 8.2 µM [activator, partial curve, poor fit] | 
COCCCNC(=O)CCn1c(=O)c2ccccc2n(CC(=O)NCCc2ccc(OC)c(OC)c2)c1=O | inconclusive: 1.12 µM [inhibitor, partial curve, poor fit] | 
CCOc1ccccc1NC(=O)CNS(=O)(=O)c1ccc2nc(C)sc2c1 | inconclusive: 35.5 µM [inhibitor, single point] | 
CC1(C)C(=O)OC(C(=O)c2ccc(Cl)cc2)C(C)(C)C1=O (stereo not drawn) | inconclusive: 0.112 µM [inhibitor, full curve, poor fit] | 
Cc1nn(-c2ccc(F)cc2)c(Cl)c1C(=O)N(C)CC(=O)Nc1cccc(F)c1 | inconclusive: 35.5 µM [inhibitor, single point] | 
CCOC(=O)C1(Cc2cccc(OC)c2)CCCN(C(=O)CNC(C)=O)C1 (stereo not drawn) | inconclusive: 4.47 µM [activator, full curve] | 

SMILES | Potency | activity change, negative = inhibition
CCN(c1cc(C)cc(C)c1)S(=O)(=O)c1nnc(NC(=O)C(C)C)s1 | inconclusive: 35.5 µM [inhibitor, single point] | 
COC(=O)c1sccc1NC(=O)Nc1ccc(Cl)c(Cl)c1 | inconclusive: 0.891 µM [activator, full curve] | 
Nc1cnnc(N/N=C\c2ccccc2)c1Cl | inconclusive: 3.98 µM [activator, partial curve, poor fit] | 
CCOC(=O)c1cnc2c(Cl)cc(Cl)cc2c1NCCOCCO | inconclusive: 29.1 µM [inhibitor, single point] | 
Cc1ccc(Sc2ccc(NC(=O)c3ccc(S(C)(=O)=O)cc3Cl)cc2)cc1 | inconclusive: 16.4 µM [inhibitor, partial curve, poor fit] | 
O=C(CN1C(=O)c2ccccc2C1=O)N1CCN(C2c3ccccc3-c3ccccc32)CC1 | inconclusive: 3.16 µM [activator, partial curve, poor fit] | 
COc1ccc(NS(=O)(=O)c2ccc(C)c(C(=O)NCC(c3ccco3)N3CCCCC3)c2)cc1 (stereo not drawn) | inconclusive: 11.2 µM [inhibitor, partial curve, poor fit] | 
O=C(O)CCCc1nc(-c2ccc(Cl)cc2)no1 | inconclusive: 8.2 µM [inhibitor, partial curve, poor fit] | 
CC1CCN(C(=O)C(C)Sc2nc(-c3ccccc3)cc(C(F)(F)F)n2)CC1 (stereo not drawn) | inconclusive: 12.6 µM [inhibitor, partial curve, poor fit] and inconclusive: 35.5 µM [inhibitor, single point] | 
COc1cc2c(cc1OC)CN(c1nc(CN3CCOCC3)nc3sc4c(c13)CCC(C)C4)CC2 (stereo not drawn) | inconclusive: 35.5 µM [inhibitor, partial curve, poor fit] | 
CCC1Oc2ccc(C)cc2N(CC(=O)N(Cc2ccc(C)o2)C2CCCC2)C1=O (stereo not drawn) | inconclusive: 15.8 µM [inhibitor, single point] | 
COc1ccc(/C=C(/NC(=O)c2cccc([N+](=O)[O-])c2)C(=O)O)cc1OC |  | inactive: 18.7% [at 46.1 µM]
COc1cc(Cl)ccc1OCc1cc(C(=O)N2CCCC(OC)C2)no1 (stereo not drawn) | inconclusive: 35.5 µM [inhibitor, single point] | 
COc1ccc(/C=C2/SC(=O)N(CCCCCC(=O)Nc3ccccc3C(=O)O)C2=S)cc1 | inconclusive: 11.2 µM [inhibitor, partial curve, poor fit] | 
Cc1ccc(CC(=O)Nc2nccs2)cc1C |  | inactive: 7.93%
O=C(NC1CCCCC1)c1cc(-c2ccccc2O)on1 |  | inactive: -20.9% [at 46.1 µM]
COc1ccccc1OCc1nc(-c2cccc(C)c2)no1 | inconclusive: 15.8 µM [activator, partial curve, poor fit] | 
O=C(Nc1ccc2c(c1)OCO2)N1CCN(c2cccc(C(F)(F)F)c2)CC1 | inconclusive: 32.6 µM [inhibitor, single point] | 
CCOc1ccc(NC(=O)C2CCN(C(=O)NC3CCCCC3)CC2)cc1 | inconclusive: 3.66 µM [inhibitor, single point] | 
CC1(C)NC(=O)N(CCCOc2ccccc2Br)C1=O | inconclusive: 5.62 µM [activator, single point] | 
O=C(CSc1nc2ccccc2[nH]1)NCCCn1ccnc1 |  | inactive: 17.6%

SMILES | Potency | activity change, negative = inhibition
N#CCCN(CCN1CCCC1)S(=O)(=O)c1ccc(-c2ccc([N+](=O)[O-])cc2)cc1 | inconclusive: 3.16 µM [activator, partial curve, poor fit] | 
COc1ccccc1NC(=O)c1ccccc1C(=O)O |  | inactive: 0% [at 46.1 µM]
CC(C)OCCCn1c(=O)c2ccccc2n2c(CCC(=O)NC3CCN(Cc4ccccc4)CC3)nnc12 |  | inactive: -20.3% [at 46.1 µM]
O=C(O)c1ccc(C2Nc3ccccc3-c3nnc(SCc4ccc(Cl)cc4)nc3O2)cc1 (stereo not drawn) | inconclusive: 4.47 µM [activator, full curve, poor fit] | 
O=C(/C=C/c1ccc(O)cc1)c1ccccc1 | inconclusive: 28.2 µM [activator, single point] | 
Cc1[nH]c2ccccc2c1C(=O)C(=O)N1CC=C(c2ccccc2)CC1 | inconclusive: 10.3 µM [inhibitor, single point] | 
CC(C)(C)OC(=O)N1CCC[C@H]1C(=O)N/N=C/c1ccc2nccnc2c1 | inconclusive: 15.8 µM [inhibitor, partial curve, poor fit] | 
CCCN1C(=O)C2(c3ccccc31)c1c(oc3ccccc3c1=O)C(=O)N2CCCOC(C)C (stereo not drawn) |  | inactive: -12.6% [at 46.1 µM]
Cc1nc(-c2ccccc2)nc2n[nH]c(N)c12 | inconclusive: 11.2 µM [activator, partial curve, poor fit] | 
Cc1cc(C)c(NC(=O)CN2CCN(c3ccccn3)CC2)c(C)c1 | inconclusive: 35.5 µM [activator, single point] | 
CN(c1cccc(NC(=O)Nc2ccc(Cl)cc2)c1)S(C)(=O)=O | inconclusive: 29.1 µM [inhibitor, single point] | 
Cc1ccc(S(=O)(=O)NC(=S)NC2CCCCC2)cc1 |  | inactive: 9.24% [at 46.1 µM]
Oc1[nH]c2ccccc2c1N=Nc1ccc(F)cc1 | inconclusive: 0.891 µM [activator, full curve, poor fit] | 
CCOc1cc(C)c(S(=O)(=O)NCc2ccccn2)cc1C |  | inactive: -3.87%
Cc1ccc2cc(C(c3nnnn3Cc3ccccc3)N3CCc4ccccc43)c(=O)[nH]c2c1 (stereo not drawn) | inconclusive: 25.9 µM [inhibitor, single point] | 
Cc1cccc(OCC(=O)Nc2nnn(C)n2)c1C |  | inactive: -19.1%
Cc1ccc([N+](=O)[O-])cc1NC(=O)CN1CCCCC1 | inconclusive: 2.82 µM [inhibitor, partial curve, poor fit] | 
Cc1ccc(NC(=O)C(NC2CCCc3ccccc32)c2ccccc2)cc1Cl (stereo not drawn) | inconclusive: 7.08 µM [inhibitor, full curve, poor fit] | 
CCOc1ccc2[nH]c(=O)c(CN(Cc3nnnn3CCc3ccccc3)CC3CCCO3)cc2c1 (stereo not drawn) | inconclusive: 14.1 µM [inhibitor, single point] | 
N#CCSc1ccc(S(=O)(=O)N2CCOCC2)cn1 |  | inactive: 16% [at 46.1 µM]
COc1cccc2c1cc1c(=O)n(CC(=O)N3CCC(C)CC3)nc(C)n12 | inconclusive: 1.58 µM [inhibitor, full curve] | 

4 entries from above, reformatted.
COc1ccc(N2C(=O)CC(N(CCc3ccc(OC)c(OC)c3)C(=S)Nc3ccccc3)C2=O)cc1 (stereo not drawn)
  activity change, negative = inhibition: inactive: 9.68%
O=S(=O)(Nc1ccccc1-c1ccccc1)c1ccccc1
  Potency: inconclusive: 10 µM [inhibitor, partial curve, poor fit]
Cc1occc1-c1nnc(SCC(N)=O)o1
  activity change, negative = inhibition: inactive: -2.88% [at 46.1 µM]
CCCNC(=O)OC[C@H]1O[C@H](CCO/N=C/[C@@H](NS(=O)(=O)c2ccc(C)cc2)[C@H](C)/C=C/CC(=O)OC)C=C[C@@H]1Oc1ccc(OC)cc1
  Potency: inconclusive: 16.4 µM [inhibitor, partial curve, poor fit]
